The assay addresses T1, GST-AnxA6 fusion protein (UniProt P08133).
T1 sequence: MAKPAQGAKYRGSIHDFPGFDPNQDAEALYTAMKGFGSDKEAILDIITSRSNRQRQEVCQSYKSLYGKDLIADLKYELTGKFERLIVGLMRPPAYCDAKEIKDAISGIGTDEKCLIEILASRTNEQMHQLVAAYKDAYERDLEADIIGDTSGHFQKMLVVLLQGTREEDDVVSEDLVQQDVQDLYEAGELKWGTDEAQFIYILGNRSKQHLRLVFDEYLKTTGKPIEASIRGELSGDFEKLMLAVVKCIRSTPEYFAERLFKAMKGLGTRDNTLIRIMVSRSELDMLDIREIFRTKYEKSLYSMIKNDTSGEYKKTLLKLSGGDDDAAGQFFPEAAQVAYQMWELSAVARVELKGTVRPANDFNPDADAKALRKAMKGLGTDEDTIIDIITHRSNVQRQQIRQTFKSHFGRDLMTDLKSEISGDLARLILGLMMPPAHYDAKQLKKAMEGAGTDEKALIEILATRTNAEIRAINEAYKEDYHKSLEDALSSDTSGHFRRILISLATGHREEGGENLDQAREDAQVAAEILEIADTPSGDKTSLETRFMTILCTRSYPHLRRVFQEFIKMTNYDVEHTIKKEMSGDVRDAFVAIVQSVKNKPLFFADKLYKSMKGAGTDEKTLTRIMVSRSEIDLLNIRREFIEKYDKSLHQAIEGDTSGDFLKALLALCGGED
Description: pull-down; 2 µg of GST-AnxA6 immobilized to glutathione beads, incubated with 500 µg of whole cell extract from MDA-468 cells in lysis buffer with or without 1 mM Ca2+; Western blotting; only the target purified.

No constants are given. Whether binding was seen depends on the method and setting. Binding seen in cells or lysates may run through a third protein. A result given as binding can be weak or reduced; the word gives no strength. Where a sequence is shown, tags or fusion partners need not be part of it.

As for “E-cadherin (human (endogenous in MDA-468))”, the binding entry was “binds”.
